Results taken from US6410686B1, “Galanin receptor 2 protein” (Bayer Corporation, priority 1996, dated 2002).
Part of at least one peptide drawing is inferred or uncertain, most often the ends. At least one compound was matched to its structure with a doubt left. Non-standard residues stand in square brackets, D forms with d. Residues, ends and D or L forms follow the SMILES beside them.

Target: T1, Rat GalR2 [clone Y107] (Rattus norvegicus, UniProt O08726)
T1 construct: expressed in transfected cells; host or cells: COS-7 (monkey kidney), transient, pcDNA3 clone from a rat hypothalamus cDNA library; membranes
T1 sequence (O08726 1-372): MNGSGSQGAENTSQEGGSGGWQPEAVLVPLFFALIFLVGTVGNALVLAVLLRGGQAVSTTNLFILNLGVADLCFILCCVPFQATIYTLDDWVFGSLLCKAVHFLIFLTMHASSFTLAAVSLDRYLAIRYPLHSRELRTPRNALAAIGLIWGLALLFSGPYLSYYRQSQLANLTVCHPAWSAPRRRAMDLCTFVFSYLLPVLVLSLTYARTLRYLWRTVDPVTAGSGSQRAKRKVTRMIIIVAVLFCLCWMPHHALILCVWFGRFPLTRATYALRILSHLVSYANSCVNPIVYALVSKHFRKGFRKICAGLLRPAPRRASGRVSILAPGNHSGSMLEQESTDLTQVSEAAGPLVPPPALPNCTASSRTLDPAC
Test: [125I]hGalanin competition binding, membranes of COS-7 cells transiently expressing rat GalR2 clone Y107
Conditions: rat GalR2 compared with rat GalR1, [125I]hGalanin binding
Method: 15 μg of DNA and 90 μl of lipofectamine were added to each flask. Media was replaced 24 hours post transfection, and membranes were harvested 24 hours later.
The media was removed from each flask of transfected cells, and the cells were washed twice with 20 ml ice-cold phosphate buffered saline. The cells were scraped from the flask in 5 ml of Tris buffer (20 mM Tris-HCl, 5 mM EDTA, pH 7.7), and then transferred to a centrifuge tube. Each flask was rinsed with an additional 5 ml of Tris buffer, and combined in the centrifuge tube. The cells were homogenized in a Polytron PT-3000 (Brinkman Instruments, Mill Valley, N.Y.) for 2×10 seconds ([…], 7000-8000 rpm) and centrifuged at 20,000×g for 30 minutes at 4° C. The pellet was resuspended in fresh Tris buffer, and centrifuged again at 20,000×g for 30 minutes at 4° C. Protein concentration was measured using the Bio-Rad kit according to the standard manufacturer's protocol (Bio-Rad Laboratories (Hercules, Calif.) 500-0001) using bovine IgG as the standard.
The binding assays were performed on 96-well plates (GF/C Millipore Corp., Bedford, MA PN MAFC NOB 50) pretreated with 0.3% polyethylenimine (PEI) for at least 3 hours prior to use. […] Samples were then counted on a gamma counter to quantitate the amount of radioactivity. […]

Structure (SMILES) | lower affinity for GalR2 than for rat GalR1
CC(C)C[C@H](NC(=O)[C@H](CC(C)C)NC(=O)[C@@H](Cc1c[nH]c2ccccc12)NC(=O)[C@H](Cc1ccccc1)NC(=O)[C@@H](Cc1c[nH]c2ccccc12)NC(=O)[C@H](CCC(N)=O)NC(=O)[C@H](CCC(N)=O)NC(=O)[C@@H]1CCCN1C(=O)[C@H](CCCCN)NC(=O)[C@@H]1CCCN1C(=O)[C@@H](CCCNC(=N)N)NC(=O)[C@@H]1CCCN1C(=O)CNC(=O)[C@H](CC(C)C)NC(=O)[C@H](CC(C)C)NC(=O)[C@H](Cc1ccc(O)cc1)NC(=O)CNC(=O)[C@H](C)NC(=O)[C@H](CO)NC(=O)[C@H](CC(N)=O)NC(=O)[C@H](CC(C)C)NC(=O)[C@@H](NC(=O)[C@H](Cc1c[nH]c2ccccc12)NC(=O)CN)[C@@H](C)O)C(N)=O [C7, (1-13)Galanin+santide] (H-GWTLNSAGYLLGP[dR]PKPQQ[dW]F[dW]LL-NH2; N-terminus and C-terminus assumed) | about 10 fold
CC[C@H](C)[C@H](NC(=O)[C@H](C)NC(=O)[C@H](Cc1c[nH]cn1)NC(=O)[C@@H]1CCCN1C(=O)CNC(=O)[C@H](CC(C)C)NC(=O)[C@H](CC(C)C)NC(=O)[C@H](Cc1ccc(O)cc1)NC(=O)CNC(=O)[C@H](C)NC(=O)[C@H](CO)NC(=O)[C@H](CC(N)=O)NC(=O)[C@H](CC(C)C)NC(=O)[C@@H](NC(=O)[C@H](Cc1c[nH]c2ccccc12)NC(=O)CN)[C@@H](C)O)C(=O)N[C@@H](CC(=O)O)C(=O)N[C@@H](CC(N)=O)C(=O)N[C@@H](Cc1c[nH]cn1)C(=O)N[C@@H](CCCNC(=N)N)C(=O)N[C@@H](CO)C(=O)N[C@@H](Cc1ccccc1)C(=O)N[C@@H](CO)C(=O)N[C@@H](CC(=O)O)C(=O)N[C@@H](CCCCN)C(=O)N[C@@H](Cc1c[nH]cn1)C(=O)NCC(=O)N[C@@H](CC(C)C)C(=O)N[C@H](C(N)=O)[C@@H](C)O [r(1-29)galanin] | about 10 fold
